For at least one compound, name, drawing or mass did not settle the structure.
Assays:
Type in all cases: in vivo, human
[1] = system: chronic heart failure patient who has a left ventricular ejection fraction larger than 40%; test: Treatment of diastolic congestive heart failure with EPA-E (Example 1(1)); settings: daily dose 1200 to 2700 mg for at least 3 months; present-tense paper example
[2] = system: diastolic congestive heart failure patient with 5 mm or thicker excess epicardial fat; test: Treatment of diastolic congestive heart failure having excess epicardial fat with EPA-E (Example 1(2)); settings: daily dose 1800 mg for 3 months; present-tense paper example
[3] = system: diastolic congestive heart failure patients; test: Echocardiographic evaluation of diastolic function in diastolic congestive heart failure patients, EPA-E-administered vs non-administered group (Example 2); settings: 1800 mg/day oral, 6 months
Method: Diastolic congestive heart failure patients were targeted and divided into an EPA-E-administered group and an EPA-E-non-administered group. The EPA-E-administered group received the oral administration of EPA-E (trade name: Epadel; manufactured by Mochida Pharmaceutical Co., Ltd.) at a daily dose of 1800 mg for 6 months. The EPA-E-non-administered group received neither EPA nor its derivative during the test period. Another hypotensive or antilipidemic agent was not administered to any of these groups during the test period. The diastolic function of each patient was evaluated by echocardiography before the start of the test and after the completion of the test (6 months later). The evaluation items used were 1) a ratio of a peak filling velocity of early diastolic transmitral flow (a peak filling velocity of mitral inflow during early diastole: E) to a peak filling velocity of atrial systolic transmitral flow (a peak filling velocity of mitral inflow during atrial contraction: A) (E/A ratio), 2) the time required for the peak filling velocity of mitral inflow during early diastole to reach zero (deceleration time: DT), 3) an early diastolic mitral annulus velocity (E), and 4) an E/E′ ratio. […] The rate of change was determined as an average of % change from the value (defined as 100) before the start to the value after 6 months in each case.

## CC/C=C\C/C=C\C/C=C\C/C=C\C/C=C\CCCC(=O)OCC [EPA-E, icosapentaenoic acid ethyl ester]
[1]
  at least one of heart failure-associated indexes (edema, dyspnea or shortness of breath, increased ventricular stiffness, cardiac diastolic dysfunction, atrial fibrillation): alleviated or suppressed
[2]
  amount or thickness of epicardial fat: reduced
  at least one of heart failure-associated indexes (edema, dyspnea, ventricular stiffness, diastolic dysfunction, atrial fibrillation, epicardial fat): alleviated or suppressed
[3]
  cardiac diastolic dysfunction, overall conclusion: improvement
